Assay results published in US20230312680A1.
No constants are given. Whether binding was seen depends on the method and setting. Binding calls can cover weak binding; strength is not graded here. Ends that are not written are not given here.

Target: HLA-B*44:02 (human)
Assay: UV-ligand exchange, b2m ELISA; grade of exchange yield

binding, binds:
AEFLLRIFL [… (SEQ ID No 52)]
MEHPGKLLF [… (SEQ ID No 53)]
AEITITTQTGY [… (SEQ ID No 54)]
HETETRTTW [… (SEQ ID No 55)]
SEPDTTASW [… (SEQ ID No 56)]
QESDLRLFL [… (SEQ ID No 57)]
GEMEQKQL [GEMEQKQL (SEQ ID No 58)]
SENVTMKVV [… (SEQ ID No 59)]
AEAQVGDERDY [… (SEQ ID No 173)]
AEATARLNVF [… (SEQ ID No 174)]
AEIEPKADG [… (SEQ ID No 175)]
AEIEPKADGSW [… (SEQ ID No 176)]
TEVGTMNLF [… (SEQ ID No 177)]
NELFRDGVNW [… (SEQ ID No 178)]
REAGDEFEL [… (SEQ ID No 179)]
REAGDEFELRY [… (SEQ ID No 180)]
GEGPKTSW [GEGPKTSW (SEQ ID No 181)]
KEATEAQSL [… (SEQ ID No 182)]
YEKGIMQKV [… (SEQ ID No 183)]
AELEALTDLW [… (SEQ ID No 184)]
AERQPGAASL [… (SEQ ID No 185)]
REGPEEPGL [… (SEQ ID No 186)]
GEAQTRIAW [… (SEQ ID No 187)]
AEFAKKQPWW [… (SEQ ID No 188)]
KEFLFNMY [KEFLFNMY (SEQ ID No 189)]
YEVARILNL [… (SEQ ID No 190)]
EEDAALFKAW [… (SEQ ID No 191)]
YEFKFPNRL [… (SEQ ID No 192)]
LEAQQEAL [LEAQQEAL (SEQ ID No 193)]
KEVDPTSHSY [… (SEQ ID No 194)]
AEDKRHYSV [… (SEQ ID No 195)]
REMPGGPVW [… (SEQ ID No 196)]
AEVLLPRLV [… (SEQ ID No 197)]
QEAARAAL [QEAARAAL (SEQ ID No 198)]
REIDESLIFY [… (SEQ ID No 199)]
AESIPTVSF [… (SEQ ID No 200)]
AETILTFHAF [… (SEQ ID No 201)]
HESEATASW [… (SEQ ID No 202)]
IEHSTQAQDTL [… (SEQ ID No 203)]
RETSTSEETSL [… (SEQ ID No 204)]
SEITRIEM [SEITRIEM (SEQ ID No 205)]
SESVTSRTSY [… (SEQ ID No 206)]
TEARATSDSW [… (SEQ ID No 207)]
TEVSRTEAI [… (SEQ ID No 208)]
TEVSRTEL [TEVSRTEL (SEQ ID No 209)]
VEAADIFQNF [… (SEQ ID No 210)]
EEKVFPSPLW [… (SEQ ID No 211)]
MEQKQLQKRF [… (SEQ ID No 212)]

Target: HLA-B*07:02 (human)
Assay: as above

binding, binds:
TPLATTQRF [… (SEQ ID No 364)]
TPLATTQRFTY [… (SEQ ID No 365)]
TPSVVTEGF [… (SEQ ID No 367)]
VPTPVFPTM [… (SEQ ID No 368)]
FPHSEMTTV [… (SEQ ID No 369)]
PGGTRQSL [PGGTRQSL (SEQ ID No 370)]
LYVDGFTHW [… (SEQ ID No 371)]
IPRNPPPTLL [… (SEQ ID No 372)]
RPRALRDLRIL [… (SEQ ID No 373)]
NPIGDTGVKF [… (SEQ ID No 374)]
AAASPLLLL [… (SEQ ID No 375)]
RPRSPAGQVA [… (SEQ ID No 376)]
RPRSPAGQVAAA [… (SEQ ID No 377)]
RPRSPAGQVAA [… (SEQ ID No 378)]
GPFPLVYVL [… (SEQ ID No 379)]
IPTYGRTF [IPTYGRTF (SEQ ID No 380)]
LPEQTPLAF [… (SEQ ID No 381)]
SPMHDRWTF [… (SEQ ID No 382)]
TPTKETVSL [… (SEQ ID No 383)]
YPGLRGSPM [… (SEQ ID No 384)]
SPALHIGSV [… (SEQ ID No 385)]
FPFNPLDF [FPFNPLDF (SEQ ID No 386)]
APLKLSRTPA [… (SEQ ID No 387)]
SPAPLKLSRTPA [… (SEQ ID No 388)]
SPGAQRTFFQL [… (SEQ ID No 389)]
NPDLRRNVL [… (SEQ ID No 390)]
APSTPRITTF [… (SEQ ID No 391)]
KPIESTLVA [… (SEQ ID No 392)]
